Publication PMC9582515

T1: Dynein axonemal assembly factor 5 (DNAAF5), in HCC cell lysate (human) (UniProt Q86Y56)
T1 sequence: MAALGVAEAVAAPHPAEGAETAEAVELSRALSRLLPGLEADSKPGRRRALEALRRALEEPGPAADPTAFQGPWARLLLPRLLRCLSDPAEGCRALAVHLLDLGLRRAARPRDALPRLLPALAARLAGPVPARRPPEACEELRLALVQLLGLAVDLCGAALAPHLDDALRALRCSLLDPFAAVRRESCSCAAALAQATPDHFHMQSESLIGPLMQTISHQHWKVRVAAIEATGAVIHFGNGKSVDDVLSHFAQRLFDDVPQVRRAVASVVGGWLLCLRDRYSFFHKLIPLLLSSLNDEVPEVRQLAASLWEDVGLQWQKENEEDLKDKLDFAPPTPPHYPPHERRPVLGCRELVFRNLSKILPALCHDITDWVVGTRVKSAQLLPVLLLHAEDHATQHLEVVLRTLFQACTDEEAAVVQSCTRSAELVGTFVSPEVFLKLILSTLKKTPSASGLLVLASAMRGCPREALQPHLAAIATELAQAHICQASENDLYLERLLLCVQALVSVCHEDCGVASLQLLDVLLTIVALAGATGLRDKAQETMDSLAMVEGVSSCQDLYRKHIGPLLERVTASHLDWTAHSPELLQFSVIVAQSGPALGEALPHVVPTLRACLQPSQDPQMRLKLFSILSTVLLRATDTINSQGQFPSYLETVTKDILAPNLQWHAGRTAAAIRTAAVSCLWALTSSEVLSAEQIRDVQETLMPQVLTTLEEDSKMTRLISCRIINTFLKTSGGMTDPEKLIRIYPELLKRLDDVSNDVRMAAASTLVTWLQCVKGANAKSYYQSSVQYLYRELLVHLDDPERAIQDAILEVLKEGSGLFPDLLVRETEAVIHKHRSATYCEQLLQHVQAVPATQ


Target: T1, Dynein axonemal assembly factor 5 (DNAAF5), in HCC cell lysate (human)
Experiment: affinity purification with mass spectrometry; co-immunoprecipitation of DNAAF5 followed by mass spectrometry of interacting proteins; cells not given

Row | binding | Binder
1 | binds | PFKL (phosphofructokinase, liver type), in HCC cell lysate (enzyme, UniProt P17858 1-780) MAAVDLEKLRASGAGKAIGVLTSGGDAQGMNAAVRAVTRMGIYVGAKVFLIYEGYEGLVEGGENIKQANWLSVSNIIQLGGTIIGSARCKAFTTREGRRAAAYNLVQHGITNLCVIGGDGSLTGANIFRSEWGSLLEELVAEGKISETTARTYSHLNIAGLVGSIDNDFCGTDMTIGTDSALHRIMEVIDAITTTAQSHQRTFVLEVMGRHCGYLALVSALASGADWLFIPEAPPEDGWENFMCERLGETRSRGSRLNIIIIAEGAIDRNGKPISSSYVKDLVVQRLGFDTRVTVLGHVQRGGTPSAFDRILSSKMGMEAVMALLEATPDTPACVVTLSGNQSVRLPLMECVQMTKEVQKAMDDKRFDEATQLRGGSFENNWNIYKLLAHQKPPKEKSNFSLAILNVGAPAAGMNAAVRSAVRTGISHGHTVYVVHDGFEGLAKGQVQEVGWHDVAGWLGRGGSMLGTKRTLPKGQLESIVENIRIYGIHALLVVGGFEAYEGVLQLVEARGRYEELCIVMCVIPATISNNVPGTDFSLGSDTAVNAAMESCDRIKQSASGTKRRVFIVETMGGYCGYLATVTGIAVGADAAYVFEDPFNIHDLKVNVEHMTEKMKTDIQRGLVLRNEKCHDYYTTEFLYNLYSSEGKGVFDCRTNVLGHLQQGGAPTPFDRNYGTKLGVKAMLWLSEKLREVYRKGRVFANAPDSACVIGLKKKAVAFSPVTELKKDTDFEHRMPREQWWLSLRLMLKMLAQYRISMAAYVSGELEHVTRRTLSMDKGF
2 | binds | USP39 (deubiquitination protein), in HCC cell lysate (protein, UniProt Q53GS9 1-565) MSGRSKRESRGSTRGKRESESRGSSGRVKRERDREREPEAASSRGSPVRVKREFEPASAREAPASVVPFVRVKREREVDEDSEPEREVRAKNGRVDSEDRRSRHCPYLDTINRSVLDFDFEKLCSISLSHINAYACLVCGKYFQGRGLKSHAYIHSVQFSHHVFLNLHTLKFYCLPDNYEIIDSSLEDITYVLKPTFTKQQIANLDKQAKLSRAYDGTTYLPGIVGLNNIKANDYANAVLQALSNVPPLRNYFLEEDNYKNIKRPPGDIMFLLVQRFGELMRKLWNPRNFKAHVSPHEMLQAVVLCSKKTFQITKQGDGVDFLSWFLNALHSALGGTKKKKKTIVTDVFQGSMRIFTKKLPHPDLPAEEKEQLLHNDEYQETMVESTFMYLTLDLPTAPLYKDEKEQLIIPQVPLFNILAKFNGITEKEYKTYKENFLKRFQLTKLPPYLIFCIKRFTKNNFFVEKNPTIVNFPITNVDLREYLSEEVQAVHKNTTYDLIANIVHDGKPSEGSYRIHVLHHGTGKWYELQDLQVTDILPQMITLSEAYIQIWKRRDNDETNQQGA

No constants are given. Whether binding was seen depends on the method and setting. Binding seen in cells or lysates may run through a third protein. Here binding means that the protein was enriched with, or labelled near, the bait; the list need not be complete.
